This passage reports binding results from paper PMC11102862.

These are yes or no findings as the source states them, for the method shown. In cells and extracts the contact can be indirect. Some entries that bind do so weakly or less than the wild type. Sequences can lack the tags named with a protein.

In one test the target is T1, 3xFLAG_CD2BP2 (human) (UniProt O95400).
T1 sequence: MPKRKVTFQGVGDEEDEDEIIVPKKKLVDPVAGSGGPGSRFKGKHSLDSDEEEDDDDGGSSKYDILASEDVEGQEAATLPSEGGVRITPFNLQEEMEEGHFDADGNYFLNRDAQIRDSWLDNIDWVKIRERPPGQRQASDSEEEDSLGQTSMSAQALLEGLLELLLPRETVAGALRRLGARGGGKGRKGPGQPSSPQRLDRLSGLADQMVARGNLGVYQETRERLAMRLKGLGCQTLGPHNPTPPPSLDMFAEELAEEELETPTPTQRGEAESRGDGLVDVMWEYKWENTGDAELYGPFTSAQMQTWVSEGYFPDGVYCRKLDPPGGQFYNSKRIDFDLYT
The test can be described thus: co-IP; called a FLAG-tag pull-down: HEK293T co-expressing 3xFLAG-CD2BP2 and 3xHA-PRP6 270-941; lysate in 150 mM KCl, 20 mM K-HEPES pH 7.8, 0.1% Triton X-100; FLAG-agarose captures the bait; western blot anti-HA and anti-FLAG; single biological replicate. On the technique in general: Immunoblotting shows a protein as a band on a membrane.

For test [1], the target named is T2, 3xFLAG_TEV_SBP-tagged CD2BP2 (human) (UniProt O95400).
T2 sequence: T1 sequence
The test can be described thus: cross-linking; BS3 XL-MS of the purified CD2BP2 complex at 3 mg/ml, 0.25 mM or 1 mM BS3, 30 min at 30 °C; complex co-purified from nuclear extract.

B1: 3xHA_PRP6^270-941 (domain or fragment, UniProt O94906 270-941)
chain: PKGYLTDLNSMIPTHGGDINDIKKARLLLKSVRETNPHHPPAWIASARLEEVTGKLQVARNLIMKGTEMCPKSEDVWLEAARLQPGDTAKAVVAQAVRHLPQSVRIYIRAAELETDIRAKKRVLRKALEHVPNSVRLWKAAVELEEPEDARIMLSRAVECCPTSVELWLALARLETYENARKVLNKARENIPTDRHIWITAAKLEEANGNTQMVEKIIDRAITSLRANGVEINREQWIQDAEECDRAGSVATCQAVMRAVIGIGIEEEDRKHTWMEDADSCVAHNALECARAIYAYALQVFPSKKSVWLRAAYFEKNHGTRESLEALLQRAVAHCPKAEVLWLMGAKSKWLAGDVPAARSILALAFQANPNSEEIWLAAVKLESENDEYERARRLLAKARSSAPTARVFMKSVKLEWVQDNIRAAQDLCEEALRHYEDFPKLWMMKGQIEEQKEMMEKAREAYNQGLKKCPHSTPLWLLLSRLEEKIGQLTRARAILEKSRLKNPKNPGLWLESVRLEYRAGLKNIANTLMAKALQECPNSGILWSEAIFLEARPQRRTKSVDALKKCEHDPHVLLAVAKLFWSQRKITKAREWFHRTVKIDSDLGDAWAFFYKFELQHGTEEQQEEVRKRCESAEPRHGELWCAVSKDIANWQKKIGDILRLVAGRIKNTF
For the molecule B1, in the test with 3xFLAG_CD2BP2 (human), the binding result is “binds”.

B2: PRP6 (protein, UniProt O94906 1-941)
chain: MNKKKKPFLGMPAPLGYVPGLGRGATGFTTRSDIGPARDANDPVDDRHAPPGKRTVGDQMKKNQAADDDDEDLNDTNYDEFNGYAGSLFSSGPYEKDDEEADAIYAALDKRMDERRKERREQREKEEIEKYRMERPKIQQQFSDLKRKLAEVTEEEWLSIPEVGDARNKRQRNPRYEKLTPVPDSFFAKHLQTGENHTSVDPRQTQFGGLNTPYPGGLNTPYPGGMTPGLMTPGTGELDMRKIGQARNTLMDMRLSQVSDSVSGQTVVDPKGYLTDLNSMIPTHGGDINDIKKARLLLKSVRETNPHHPPAWIASARLEEVTGKLQVARNLIMKGTEMCPKSEDVWLEAARLQPGDTAKAVVAQAVRHLPQSVRIYIRAAELETDIRAKKRVLRKALEHVPNSVRLWKAAVELEEPEDARIMLSRAVECCPTSVELWLALARLETYENARKVLNKARENIPTDRHIWITAAKLEEANGNTQMVEKIIDRAITSLRANGVEINREQWIQDAEECDRAGSVATCQAVMRAVIGIGIEEEDRKHTWMEDADSCVAHNALECARAIYAYALQVFPSKKSVWLRAAYFEKNHGTRESLEALLQRAVAHCPKAEVLWLMGAKSKWLAGDVPAARSILALAFQANPNSEEIWLAAVKLESENDEYERARRLLAKARSSAPTARVFMKSVKLEWVQDNIRAAQDLCEEALRHYEDFPKLWMMKGQIEEQKEMMEKAREAYNQGLKKCPHSTPLWLLLSRLEEKIGQLTRARAILEKSRLKNPKNPGLWLESVRLEYRAGLKNIANTLMAKALQECPNSGILWSEAIFLEARPQRRTKSVDALKKCEHDPHVLLAVAKLFWSQRKITKAREWFHRTVKIDSDLGDAWAFFYKFELQHGTEEQQEEVRKRCESAEPRHGELWCAVSKDIANWQKKIGDILRLVAGRIKNTF
With B2, the binding entry in test [1] is “binds”.
